Measurements reported in PubChem BioAssay AID1259424 (University of Nebraska Medical Center, 2018).
Aim: 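Find knockdowns that reproduce the expression shifts seen after KSR1 loss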 (primary screen). System: human HCT116 colon cancer cells. Reagents: siRNA pool against human genes, 50 nM. Measured: 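Log2 levels of six mRNAs (branched-DNA multiplex), adjusted by two reference genes and the non-targeting median, then scored against the average KSR1 knockdown pattern as Pearson r and euclidean distance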. Scale: mean correlation with KSR1 profile and KSR1 correlation: higher = expression change more like KSR1 knockdown; mean distance from KSR1 profile: higher = expression change less like KSR1 knockdown.
In all, the deposit lists about 14,000 reagents; this is a random part of them. 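Higher correlation or smaller distance means closer resemblance to KSR1 loss; control wells, including KSR1 knockdowns, recur on many plates.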 The record does not give: the time to read-out.

The opening 2 entries, ahead of the listing:
target gene | mean correlation with KSR1 profile | mean distance from KSR1 profile | KSR1 correlation, replicate 1 | KSR1 correlation, replicate 2 | KSR1 correlation, replicate 3
APOBEC1 | 0.188 | 2.28 | 0.108 | 0.0345 | 0.335
CINP | 0.127 | 2.8 | 0.284 | 0.12 | -0.103

Main list, from the start:
target gene | mean correlation with KSR1 profile | mean distance from KSR1 profile | KSR1 correlation, replicate 1 | KSR1 correlation, replicate 2 | KSR1 correlation, replicate 3
APOBEC1 | 0.188 | 2.28 | 0.108 | 0.0345 | 0.335
CINP | 0.127 | 2.8 | 0.284 | 0.12 | -0.103
MTMR8 | 0.0505 | 1.54 | 0.195 | -0.405 | 0.513
VPS18 | 0.611 | 0.725 | 0.4 | 0.366 | 0.597
IL36B | 0.726 | 1.07 | 0.74 | 0.491 | 0.743
VGLL4 | 0.736 | 2.84 | 0.803 | 0.685 | 0.714
AGMAT | -0.161 | 1.8 | 0.188 | -0.0644 | -0.212
IL1RN | 0.488 | 1.13 | 0.557 | 0.283 | 0.546
MPND | 0.714 | 2.95 | 0.605 | 0.708 | 0.588
NEUROD1 | 0.589 | 1.31 | 0.688 | 0.737 | 0.588
MOCS2 | 0.0999 | 2.22 | 0.0183 | 0.163 | 0.0837
PTCH1 | -0.161 | 1.29 | -0.141 | -0.0433 | -0.172
MIF4GD | 0.146 | 2.82 | 0.339 | -0.00887 | 0.171
PAXIP1 | -0.241 | 2.51 | -0.419 | -0.143 | -0.467
SF3A3 | 0.0669 | 2.99 | -0.229 | -0.498 | 0.43
SPATA6 | -0.32 | 2.64 | -0.0309 | -0.11 | -0.28
S100A12 | 0.149 | 2.71 | 0.193 | 0.0668 | 0.159
AK3 | 0.256 | 1.57 | 0.428 | 0.18 | -0.182
ZNF354C | 0.0847 | 2.84 | -0.258 | -0.0025 | 0.00438
RUNX1T1 | 0.134 | 1.53 | -0.161 | 0.407 | -0.0462
